In article PMC8835856:
These are yes or no findings as the source states them, for the method shown. In cells and extracts the contact can be indirect. Some entries that bind do so weakly or less than the wild type.

By UniProt entry, the sequences of proteins in these tests, tags left out.
UniProt P50135: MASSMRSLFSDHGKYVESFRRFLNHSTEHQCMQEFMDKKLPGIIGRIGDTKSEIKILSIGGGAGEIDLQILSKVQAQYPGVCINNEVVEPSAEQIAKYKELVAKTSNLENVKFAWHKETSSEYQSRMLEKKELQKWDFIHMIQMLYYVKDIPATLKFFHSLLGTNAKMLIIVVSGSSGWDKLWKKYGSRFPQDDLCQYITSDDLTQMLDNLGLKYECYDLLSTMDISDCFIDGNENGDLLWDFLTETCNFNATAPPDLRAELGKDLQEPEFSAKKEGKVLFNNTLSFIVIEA

Legend:
[1] = molecular target: histamine N-methyltransferase (human (endogenous in H441)) (UniProt P50135); assay: co-IP; reciprocal immunoprecipitation with HNMT or HER2 antibodies from H441 cell lysate, endogenous proteins; non-denaturing lysis buffer (20 mM Tris HCl pH 8, 137 mM NaCl, 1% Nonidet P-40, 2 mM EDTA); SDS-PAGE/immunoblotting
[2] = molecular target: human epidermal growth factor receptor 2 (human (endogenous in H441)) (UniProt P04626); assay: as above

Row | binding [1] | binding [2] | Substance
1 | binds |  | human epidermal growth factor receptor 2 (from UniProt P04626 23-1255)
2 |  | binds | histamine N-methyltransferase (from UniProt P50135 1-292) (enzyme)
